This is an account of results in patent US20110008264A1, “METHOD FOR REPELLING A RODENT, METHOD FOR CAPTURING A RODENT AND RODENT REPELLENT” (Earth Chemical Co., Ltd., priority 2006, published 2011).

The conditions of the data set: average over 30 minutes at 5 minute intervals, room A; corrected by subtracting the control (about 309 cpm).

With `NC(=O)N=NC(N)=O` [Example 1, azodicarbonamide], the “Average dust quantity (smoke quantity)” value is listed as 46.4 cpm.

On to `NC(=O)N=NC(N)=O` [Example 2, azodicarbonamide], for which the “Average dust quantity (smoke quantity)” value was 227.8 cpm.
